# From patent US5283183A, “Cyclic FR-900520 microbial biotransformation agent” (Merck & Co., Inc., priority 1992, dated 1994)
# At least one read-out could not be matched to a standard name with certainty.
# System: mouse T lymphocytes
# Experiment: T-cell proliferation assay (ionomycin + PMA induced, tritiated thymidine uptake)
# Assay type: cell-based, mouse (C57B1/6)
# Settings: 5 additional experiments, individual values
# Experimental: The principle of this assay is to measure the proliferation of mouse T lymphocytes stimulated with the combination of ionomycin plus PMA.
# Cells were pelleted by centrifugation at 1500 rpm for 8 minutes. Contaminating red cells were removed by treating the pellet with ammonium chloride lysing buffer (GIBCO) for 2 minutes at 4° C. Cold medium was added and cells were again centrifuged at 1500 rpm for 8 minutes. T lymphocytes were then isolated by separation of the cell suspension on nylon wool columns as follows: Nylon wool columns were prepared by packing approximately 4 grams of washed and dried nylon wool into 20 ml plastic syringes. The columns were sterilized by autoclaving at 250° F. for 30 minutes. Nylon wool columns were wetted with warm (37° C.) culture medium and rinsed with the same medium. […]
# The cell suspension was immediately distributed into 96 well flat-bottom microculture plates (Costar) at 200 μl/well. […] The proliferation of T lymphocytes was assessed by measurement of tritiated thymidine incorporation. […] Radioactivity of filter discs corresponding to individual wells was measured by standard liquid scintillation counting methods (Betacounter). Mean counts per minute of replicate wells were calculated and the results expressed as percent inhibition of tritiated thymidine uptake (proliferation) as follows: [formula]
smiles,measurement,value
CC[C@@H]1C=C2COC1(O)C[C@H](O)[C@@H](C)[C@@H](/C(C)=C/[C@@H]1CC[C@@H](O)[C@H](OC)C1)OC(=O)[C@@H]1CCCCN1C(=O)C(=O)[C@]1(O)O[C@H]([C@@H](OC)C[C@@H](C)C2)[C@@H](OC)C[C@H]1C [Compound I],IC50,1.57 ng/mL
